At least one compound was matched to its structure with a doubt left.
Tested on: stage 1 NOS1::GFP enteric ganglioids
Assay: NO neuron induction in stage 1 enteric ganglioids measured by flow cytometry (NOS1::GFP)
Type: cell-based, human
Settings: RTK ligand treatment
Excerpt: To evaluate the potential of hPSC-derived cultures to model human ENS development, we set out to define the mechanism of NO neuron specification in vitro. Searching for pathways that regulate NO neuron differentiation, we performed a high-throughput small molecule screen. Identifying distinct pathways and chemical modulators that promote NO neuron induction could provide insights on NO neuron development and offer a strategy for the derivation of NO neuron enriched ENS cultures. • To identify compounds that induce NO neuron differentiation, we treated enteric crestospheres with 1694 compounds in the Selleck inhibitor library™ and identified 12 hit compounds that increased the proportion of NOS1^+ neurons by at least eight folds (FIG. 6A, FIGS. S25A and B). […]
To determine the mechanism by which PP121 induced NO neuron enrichment in ganglioids, we used a combination of pharmacological and genetic approaches. […] We evaluated the induction efficiency of NO neurons in response to PDGF (PDGFR agonist), sunitinib (PDGFR and VEGFR antagonist), NRG1 (ERBBs agonist) and sapitinib (ERBBs antagonist) (FIG. 6M). […] To genetically confirm the role of PDGFR signaling in NO neuron induction, we used CRISPR-Cas9 to knock-out PDGFRA and PDGFRB in our enteric crestospheres and analyzed the percentage of NO neurons in stage 1 ganglioids. […]

CCN(CC)CCNC(=O)c1c(C)[nH]c(/C=C2\C(=O)Nc3ccc(F)cc32)c1C [sunitinib]
NO neuron induction / NO neuron proportions: higher
